Article PMC12989817
These are yes or no findings as the source states them, for the method shown. Binding seen in cells or lysates may run through a third protein. Here binding means that the protein was enriched with, or labelled near, the bait; the list need not be complete.

By UniProt entry, the sequences of proteins in these tests, tags left out. Residues count along the entry.
UniProt P22001, residues 53-572: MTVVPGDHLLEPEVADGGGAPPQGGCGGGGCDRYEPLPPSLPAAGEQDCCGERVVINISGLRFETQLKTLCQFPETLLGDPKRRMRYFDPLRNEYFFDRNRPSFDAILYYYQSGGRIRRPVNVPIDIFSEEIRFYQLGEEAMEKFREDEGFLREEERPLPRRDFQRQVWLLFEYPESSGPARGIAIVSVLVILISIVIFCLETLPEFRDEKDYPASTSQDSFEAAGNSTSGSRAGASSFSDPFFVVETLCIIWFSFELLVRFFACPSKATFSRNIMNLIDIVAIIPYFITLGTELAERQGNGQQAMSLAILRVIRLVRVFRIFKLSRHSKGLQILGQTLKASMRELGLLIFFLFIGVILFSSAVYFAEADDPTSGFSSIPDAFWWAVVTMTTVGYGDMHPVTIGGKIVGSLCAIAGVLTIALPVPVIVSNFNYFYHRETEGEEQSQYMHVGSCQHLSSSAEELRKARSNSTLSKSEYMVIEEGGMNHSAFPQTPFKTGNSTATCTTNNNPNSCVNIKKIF
UniProt P10619, residues 29-480: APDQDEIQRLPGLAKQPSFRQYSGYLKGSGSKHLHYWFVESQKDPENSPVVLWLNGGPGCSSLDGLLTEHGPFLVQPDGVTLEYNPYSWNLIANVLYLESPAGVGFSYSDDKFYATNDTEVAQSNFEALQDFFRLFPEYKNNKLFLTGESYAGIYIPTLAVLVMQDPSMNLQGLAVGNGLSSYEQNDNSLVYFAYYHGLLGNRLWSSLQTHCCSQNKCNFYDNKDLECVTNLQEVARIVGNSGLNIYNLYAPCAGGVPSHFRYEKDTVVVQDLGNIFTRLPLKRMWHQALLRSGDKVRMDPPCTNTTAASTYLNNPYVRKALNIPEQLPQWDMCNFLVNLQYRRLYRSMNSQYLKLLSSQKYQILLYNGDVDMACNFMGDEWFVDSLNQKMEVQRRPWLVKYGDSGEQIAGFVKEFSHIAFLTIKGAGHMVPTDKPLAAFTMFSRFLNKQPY
UniProt Q13574: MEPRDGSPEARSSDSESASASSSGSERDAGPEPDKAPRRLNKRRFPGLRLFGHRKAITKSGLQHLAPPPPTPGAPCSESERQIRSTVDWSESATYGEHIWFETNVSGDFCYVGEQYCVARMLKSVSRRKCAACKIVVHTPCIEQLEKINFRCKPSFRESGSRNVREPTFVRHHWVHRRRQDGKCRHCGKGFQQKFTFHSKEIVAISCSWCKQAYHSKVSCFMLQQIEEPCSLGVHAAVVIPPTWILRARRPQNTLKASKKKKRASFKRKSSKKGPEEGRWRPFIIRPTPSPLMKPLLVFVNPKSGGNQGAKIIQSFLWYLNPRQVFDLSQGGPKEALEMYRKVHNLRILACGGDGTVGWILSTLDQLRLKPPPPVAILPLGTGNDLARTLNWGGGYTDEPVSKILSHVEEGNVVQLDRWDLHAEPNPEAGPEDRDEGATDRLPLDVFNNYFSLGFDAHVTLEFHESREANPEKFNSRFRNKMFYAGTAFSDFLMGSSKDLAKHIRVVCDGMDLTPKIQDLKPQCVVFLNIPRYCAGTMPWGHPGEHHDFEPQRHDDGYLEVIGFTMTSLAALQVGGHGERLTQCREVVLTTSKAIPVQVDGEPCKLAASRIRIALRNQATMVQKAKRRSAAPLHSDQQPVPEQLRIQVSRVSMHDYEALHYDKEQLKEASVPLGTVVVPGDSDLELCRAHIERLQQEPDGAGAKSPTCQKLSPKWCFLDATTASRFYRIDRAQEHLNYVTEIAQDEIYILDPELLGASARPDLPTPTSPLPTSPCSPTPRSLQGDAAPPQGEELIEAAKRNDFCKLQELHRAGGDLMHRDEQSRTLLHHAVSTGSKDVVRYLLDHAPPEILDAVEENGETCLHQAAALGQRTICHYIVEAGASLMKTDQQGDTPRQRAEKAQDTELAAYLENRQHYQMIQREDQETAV
UniProt P06241: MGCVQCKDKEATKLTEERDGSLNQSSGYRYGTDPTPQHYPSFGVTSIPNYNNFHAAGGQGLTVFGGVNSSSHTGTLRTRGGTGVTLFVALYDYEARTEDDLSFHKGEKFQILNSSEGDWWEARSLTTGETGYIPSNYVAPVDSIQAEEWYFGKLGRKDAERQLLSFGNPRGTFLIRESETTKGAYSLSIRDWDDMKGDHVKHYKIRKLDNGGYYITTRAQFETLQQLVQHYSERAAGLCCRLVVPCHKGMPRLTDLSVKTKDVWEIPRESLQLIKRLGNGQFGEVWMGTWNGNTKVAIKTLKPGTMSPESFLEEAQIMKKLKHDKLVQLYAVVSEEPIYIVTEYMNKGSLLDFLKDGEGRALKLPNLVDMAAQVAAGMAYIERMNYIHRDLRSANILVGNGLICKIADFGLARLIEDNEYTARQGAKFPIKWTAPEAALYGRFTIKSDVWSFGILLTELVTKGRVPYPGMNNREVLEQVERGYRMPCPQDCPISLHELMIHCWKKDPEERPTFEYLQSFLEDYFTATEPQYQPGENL
UniProt Q96RL7: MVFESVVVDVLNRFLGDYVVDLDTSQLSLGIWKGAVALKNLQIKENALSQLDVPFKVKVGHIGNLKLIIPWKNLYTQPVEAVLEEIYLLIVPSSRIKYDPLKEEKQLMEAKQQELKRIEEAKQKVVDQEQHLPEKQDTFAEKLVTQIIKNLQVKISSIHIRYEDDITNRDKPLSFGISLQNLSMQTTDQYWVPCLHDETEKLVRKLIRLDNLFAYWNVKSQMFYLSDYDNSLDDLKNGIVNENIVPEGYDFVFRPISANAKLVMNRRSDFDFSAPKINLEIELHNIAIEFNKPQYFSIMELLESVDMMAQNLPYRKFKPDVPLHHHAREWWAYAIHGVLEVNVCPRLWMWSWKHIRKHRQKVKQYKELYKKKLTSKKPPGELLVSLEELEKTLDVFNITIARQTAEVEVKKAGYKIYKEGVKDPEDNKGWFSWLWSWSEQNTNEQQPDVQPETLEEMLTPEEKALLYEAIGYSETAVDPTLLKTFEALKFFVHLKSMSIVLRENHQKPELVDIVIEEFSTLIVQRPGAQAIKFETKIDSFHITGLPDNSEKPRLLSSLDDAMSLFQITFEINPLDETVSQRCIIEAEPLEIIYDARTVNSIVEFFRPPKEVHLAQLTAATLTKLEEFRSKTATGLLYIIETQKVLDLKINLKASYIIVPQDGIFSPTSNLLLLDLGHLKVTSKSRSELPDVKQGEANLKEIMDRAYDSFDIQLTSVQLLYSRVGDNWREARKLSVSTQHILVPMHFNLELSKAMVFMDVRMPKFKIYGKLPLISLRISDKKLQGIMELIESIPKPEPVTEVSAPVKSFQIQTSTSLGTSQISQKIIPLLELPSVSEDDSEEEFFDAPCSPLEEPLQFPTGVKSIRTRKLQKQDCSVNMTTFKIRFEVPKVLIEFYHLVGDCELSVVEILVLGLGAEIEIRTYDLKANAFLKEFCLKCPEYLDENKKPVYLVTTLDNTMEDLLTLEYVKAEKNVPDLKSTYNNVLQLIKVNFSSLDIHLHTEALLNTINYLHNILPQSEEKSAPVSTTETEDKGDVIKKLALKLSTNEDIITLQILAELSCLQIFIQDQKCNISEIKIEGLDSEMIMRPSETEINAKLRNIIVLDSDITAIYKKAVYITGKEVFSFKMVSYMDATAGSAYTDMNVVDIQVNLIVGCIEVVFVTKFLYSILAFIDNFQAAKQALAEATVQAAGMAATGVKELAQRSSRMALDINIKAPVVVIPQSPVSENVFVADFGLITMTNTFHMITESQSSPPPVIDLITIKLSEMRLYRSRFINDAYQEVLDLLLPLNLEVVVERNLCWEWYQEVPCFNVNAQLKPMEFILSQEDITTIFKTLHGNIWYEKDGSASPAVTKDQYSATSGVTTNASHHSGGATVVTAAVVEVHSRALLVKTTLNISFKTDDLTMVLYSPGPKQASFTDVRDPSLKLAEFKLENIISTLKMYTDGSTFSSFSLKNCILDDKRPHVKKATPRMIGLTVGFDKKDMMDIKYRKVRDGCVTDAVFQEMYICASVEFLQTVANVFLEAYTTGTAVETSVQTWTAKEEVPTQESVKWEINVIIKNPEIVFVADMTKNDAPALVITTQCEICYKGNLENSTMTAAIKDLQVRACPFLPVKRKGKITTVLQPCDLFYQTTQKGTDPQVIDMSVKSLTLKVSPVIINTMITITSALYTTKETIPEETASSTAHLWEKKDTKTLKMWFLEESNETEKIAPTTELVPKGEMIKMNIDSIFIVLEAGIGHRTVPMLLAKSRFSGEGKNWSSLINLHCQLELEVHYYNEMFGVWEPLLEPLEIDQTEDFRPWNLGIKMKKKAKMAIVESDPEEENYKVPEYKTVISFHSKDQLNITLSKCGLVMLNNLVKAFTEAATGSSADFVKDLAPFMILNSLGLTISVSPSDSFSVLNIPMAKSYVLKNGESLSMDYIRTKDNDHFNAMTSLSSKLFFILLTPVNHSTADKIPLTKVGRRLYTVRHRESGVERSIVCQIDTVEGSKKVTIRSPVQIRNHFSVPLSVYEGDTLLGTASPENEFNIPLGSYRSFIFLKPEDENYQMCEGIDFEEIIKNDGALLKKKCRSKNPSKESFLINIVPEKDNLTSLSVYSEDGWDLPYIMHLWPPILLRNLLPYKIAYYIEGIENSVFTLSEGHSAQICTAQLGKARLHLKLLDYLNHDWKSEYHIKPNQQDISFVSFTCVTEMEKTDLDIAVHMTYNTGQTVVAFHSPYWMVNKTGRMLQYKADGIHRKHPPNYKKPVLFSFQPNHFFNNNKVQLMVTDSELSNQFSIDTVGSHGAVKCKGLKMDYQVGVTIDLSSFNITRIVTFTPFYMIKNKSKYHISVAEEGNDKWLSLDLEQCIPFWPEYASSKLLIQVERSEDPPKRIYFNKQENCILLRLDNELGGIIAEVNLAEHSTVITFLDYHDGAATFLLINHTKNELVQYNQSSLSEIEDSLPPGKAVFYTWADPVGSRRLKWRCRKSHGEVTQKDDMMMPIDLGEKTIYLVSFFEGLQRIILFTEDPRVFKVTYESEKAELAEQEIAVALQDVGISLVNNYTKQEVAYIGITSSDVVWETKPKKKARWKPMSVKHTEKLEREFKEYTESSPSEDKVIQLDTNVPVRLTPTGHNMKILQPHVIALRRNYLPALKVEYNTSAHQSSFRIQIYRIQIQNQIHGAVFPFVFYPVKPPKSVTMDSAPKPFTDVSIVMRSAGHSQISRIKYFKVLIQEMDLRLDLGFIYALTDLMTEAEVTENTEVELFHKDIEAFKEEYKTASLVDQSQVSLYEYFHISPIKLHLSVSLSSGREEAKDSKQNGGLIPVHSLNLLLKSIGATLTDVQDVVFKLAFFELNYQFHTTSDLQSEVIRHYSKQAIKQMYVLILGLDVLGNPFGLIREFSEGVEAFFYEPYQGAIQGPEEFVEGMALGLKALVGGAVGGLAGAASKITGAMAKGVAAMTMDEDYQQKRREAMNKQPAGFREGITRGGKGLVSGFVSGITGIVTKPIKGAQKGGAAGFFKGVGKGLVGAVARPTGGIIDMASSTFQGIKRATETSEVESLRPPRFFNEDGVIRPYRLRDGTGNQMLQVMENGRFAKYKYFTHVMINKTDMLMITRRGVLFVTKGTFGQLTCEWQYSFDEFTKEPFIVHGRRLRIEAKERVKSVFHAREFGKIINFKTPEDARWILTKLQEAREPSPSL
UniProt Q969M3: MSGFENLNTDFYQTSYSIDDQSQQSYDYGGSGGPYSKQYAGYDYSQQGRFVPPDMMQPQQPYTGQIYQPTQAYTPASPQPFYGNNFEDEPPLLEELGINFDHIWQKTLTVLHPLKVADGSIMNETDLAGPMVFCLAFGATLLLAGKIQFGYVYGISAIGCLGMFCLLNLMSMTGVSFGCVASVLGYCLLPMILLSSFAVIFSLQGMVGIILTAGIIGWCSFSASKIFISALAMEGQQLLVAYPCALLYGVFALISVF

B1: TMPO (protein, UniProt P42166 1-694)
chain: MPEFLEDPSVLTKDKLKSELVANNVTLPAGEQRKDVYVQLYLQHLTARNRPPLPAGTNSKGPPDFSSDEEREPTPVLGSGAAAAGRSRAAVGRKATKKTDKPRQEDKDDLDVTELTNEDLLDQLVKYGVNPGPIVGTTRKLYEKKLLKLREQGTESRSSTPLPTISSSAENTRQNGSNDSDRYSDNEEGKKKEHKKVKSTRDIVPFSELGTTPSGGGFFQGISFPEISTRPPLGSTELQAAKKVHTSKGDLPREPLVATNLPGRGQLQKLASERNLFISCKSSHDRCLEKSSSSSSQPEHSAMLVSTAASPSLIKETTTGYYKDIVENICGREKSGIQPLCPERSHISDQSPLSSKRKALEESESSQLISPPLAQAIRDYVNSLLVQGGVGSLPGTSNSMPPLDVENIQKRIDQSKFQETEFLSPPRKVPRLSEKSVEERDSGSFVAFQNIPGSELMSSFAKTVVSHSLTTLGLEVAKQSQHDKIDASELSFPFHESILKVIEEEWQQVDRQLPSLACKYPVSSREATQILSVPKVDDEILGFISEATPLGGIQAASTESCNQQLDLALCRAYEAAASALQIATHTAFVAKAMQADISQAAQILSSDPSRTHQALGILSKTYDAASYICEAAFDEVKMAAHTMGNATVGRRYLWLKDCKINLASKNKLASTPFKGGTLFGGEVCKVIKKRGNKH
B2: STX18 (protein, UniProt Q9P2W9 1-335)
chain: MAVDITLLFRASVKTVKTRNKALGVAVGGGVDGSRDELFRRSPRPKGDFSSRAREVISHIGKLRDFLLEHRKDYINAYSHTMSEYGRMTDTERDQIDQDAQIFMRTCSEAIQQLRTEAHKEIHSQQVKEHRTAVLDFIEDYLKRVCKLYSEQRAIRVKRVVDKKRLSKLEPEPNTKTRESTSSEKVSQSPSKDSEENPATEERPEKILAETQPELGTWGDGKGEDELSPEEIQMFEQENQRLIGEMNSLFDEVRQIEGRVVEISRLQEIFTEKVLQQEAEIDSIHQLVVGATENIKEGNEDIREAIKNNAGFRVWILFFLVMCSFSLLFLDWYDS

Experiments:
[1] = biological target: Kv1.3-TurboID C-terminal fusion with the PDZ-binding domain removed (human) (UniProt P22001); assay: proximity labelling; TurboID fused to Kv1.3, stably expressed in Jurkat T-cells; 200 μM biotin for 1 h; lysis in 8 M urea; biotinylated proteins enriched on streptavidin magnetic beads; label-free quantitative MS against untransduced Jurkat T-cells or between lines (>4-fold, p<0.05; n=3)
[2] = biological target: N-terminal Kv1.3-TurboID (V5-TurboID-Kv1.3 fusion) (human) (UniProt P22001); assay: as above

| Molecule | binding [1] | binding [2] |
| --- | --- | --- |
| Cathepsin A (from UniProt P10619 29-480) | binds |  |
| DGKZ (from UniProt Q13574 1-928) | binds |  |
| FYN (from UniProt P06241 1-537) | binds |  |
| MEN1 (from UniProt O00255 1-610) | binds |  |
| VPS13A (from UniProt Q96RL7 1-3174) | binds |  |
| YIPF5 (from UniProt Q969M3 1-257) | binds |  |
| B1 |  | binds |
| B2 | binds |  |
